One molecule from patent US20070253958A1 (Bristol-Myers Squibb, published 2007) can be followed below.

Sequences of proteins named here, by UniProt entry; tags and fusion partners are left off. Residues count along the entry.
UniProt P12318, residues 34-317: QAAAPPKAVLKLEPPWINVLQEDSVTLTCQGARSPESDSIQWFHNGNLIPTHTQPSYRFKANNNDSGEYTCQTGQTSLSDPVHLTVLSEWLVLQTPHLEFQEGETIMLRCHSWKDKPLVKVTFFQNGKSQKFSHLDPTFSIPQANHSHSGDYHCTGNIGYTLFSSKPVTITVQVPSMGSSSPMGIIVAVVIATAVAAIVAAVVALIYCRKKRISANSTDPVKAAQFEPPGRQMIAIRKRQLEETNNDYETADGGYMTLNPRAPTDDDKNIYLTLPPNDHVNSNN

Results are given in words; binding and its absence hold for the method and conditions named. Some entries that bind do so weakly or less than the wild type.

Assay [1] concerns the target FcγRIIa (CD32) on THP-1 cells and human monocytes, allotype not stated (human) (UniProt P12318). The assay is described as follows: flow cytometry on THP-1 cells.
Assay [2] has the same target. The assay is described as follows: flow cytometry on THP-1 cells (FcγRI and FcγRIIa), FITC goat F(ab')2 anti-human kappa, Binding (%).

B1: MDE-8 F(ab')2 fragments (protein)
VH: QVHLVESGGGVVQPGRSLRLSCAASGFTFSSYGMHWVRQAPGKGLEWVAVIWYDGSNYYYTDSVKGRFTISRDNSKNTLYLQMNSLRAEDTAVYYCARDLGAAASDYWGQGTLVTVSS
VL: AIQLTQSPSSLSASVGDRVTITCRASQGINSALAWYQQKPGKAPKLLIYDASSLESGVPSRFSGSGSGTDFTLTISSLQPEDFATYYCQQFNSYPHTFGQGTKLEIK
Turning to B1, the binding result in assay [1] and in assay [2] was “binds” throughout.
